Results taken from publication PMC7812911.
No constants are given. Whether binding was seen depends on the method and setting. Some entries that bind do so weakly or less than the wild type.

Biological target: T1, beta-2-glycoprotein I (β2GPI) (human), P02749
T1 chain: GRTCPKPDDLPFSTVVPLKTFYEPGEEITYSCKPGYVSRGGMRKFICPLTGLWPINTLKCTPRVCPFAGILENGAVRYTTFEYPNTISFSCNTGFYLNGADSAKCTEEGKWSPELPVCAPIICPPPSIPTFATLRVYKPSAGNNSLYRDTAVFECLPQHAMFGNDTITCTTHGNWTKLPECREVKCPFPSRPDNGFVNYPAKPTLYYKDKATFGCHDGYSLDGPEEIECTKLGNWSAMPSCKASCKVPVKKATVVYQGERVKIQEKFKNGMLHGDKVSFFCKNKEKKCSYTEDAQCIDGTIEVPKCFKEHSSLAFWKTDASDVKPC
Assay: SDS-PAGE; 12.5% SDS-PAGE of Heparin-Sepharose fractions of pooled human plasma stored at -80°C for three to five years; dimer-rich and monomer-rich aliquots identified on the gel; both purified
Conditions: remark: other sources report otherwise

B1: beta-2-glycoprotein I (β2GPI), P02749 20-345 (protein)
chain: GRTCPKPDDLPFSTVVPLKTFYEPGEEITYSCKPGYVSRGGMRKFICPLTGLWPINTLKCTPRVCPFAGILENGAVRYTTFEYPNTISFSCNTGFYLNGADSAKCTEEGKWSPELPVCAPIICPPPSIPTFATLRVYKPSAGNNSLYRDTAVFECLPQHAMFGNDTITCTTHGNWTKLPECREVKCPFPSRPDNGFVNYPAKPTLYYKDKATFGCHDGYSLDGPEEIECTKLGNWSAMPSCKASCKVPVKKATVVYQGERVKIQEKFKNGMLHGDKVSFFCKNKEKKCSYTEDAQCIDGTIEVPKCFKEHSSLAFWKTDASDVKPC
binding: binds
